PubChem BioAssay AID540276 (National Center for Advancing Translational Sciences (NCATS), 2011)
Among all 300,000 compounds or so, about 5,400 (1.8%) were called active. This list was built around the results that the source calls inconclusive (neither active nor inactive); the mix of calls is not that of the screen. Calls follow the shape of the full dose curve; tested in HEK293 cells. Potencies beside an inconclusive call are fits to weak or partial responses and may not hold up.

Experiment: qHTS for inhibitors of binding or entry into cells for Marburg Virus
Conditions: Marburg virus pseudotyped entry inhibition, cell reporter; activity change, negative = inhibition: at 37.8 µM (top of the series) unless noted
% is scaled to controls: 0 for no effect and ±100 for the full control effect; potency is read from the fitted curve at half-maximal effect.

Structure (SMILES)	Potency	activity change, negative = inhibition
O=C(c1cnccn1)N(Cc1ccco1)C1(C(=O)NC2CCCCC2)CCCCC1	inconclusive: 16.4 µM [inhibitor, partial curve, poor fit]	
Cc1cc(Cl)c2c(c1)[C@]1(C(=O)N2)[C@@H]2C(=O)N(Cc3ccccc3)C(=O)[C@@H]2[C@@H]2CCCN21	inconclusive: 29.1 µM [inhibitor, single point]	
O=C(NCc1cccnc1)c1ccc(Cn2c(=S)[nH]c3ccc(Br)cc3c2=O)cc1	inconclusive: 31.6 µM [activator, single point]	
O=[N+]([O-])c1ccc(/C=N/Nc2nc(N3CCCC3)nc(N3CCCC3)n2)o1	inconclusive: 5.17 µM [inhibitor, partial curve]	
C=C(C)COc1ccc(-c2ncncc2Oc2ccc(OC)cc2)c(O)c1	inconclusive: 1 µM [activator, partial curve, poor fit]	
Cc1ccc(NC(=O)/C(Cl)=C/c2ccccc2)cc1C	inconclusive: 29.1 µM [inhibitor, single point]	
COC(=O)/C=C/c1cnc2ccccc2c1	inconclusive: 1.78 µM [activator, partial curve, poor fit]	
COc1ccccc1C(=O)NCCC(=O)NC(C)c1ccc(-n2ccnc2)cc1 (configuration not stated)		inactive: 18%
CCCCNC(=O)c1ccc2c(=O)n(CCCOCC)c(=S)[nH]c2c1		inactive: 8.12%
CCOC(=O)Nc1ccc2c(C)cc(=O)oc2c1		inactive: 7.15%
CCCCCn1c(-c2ccco2)nc2nc3ccccc3nc21	active: 11.2 µM	
OCCC1CN(CCCc2ccccc2)CCN1Cc1ccc(F)cc1 (configuration not stated)	inconclusive: 1.26 µM [inhibitor, partial curve, poor fit]	
CCOc1ccc(-c2cnc(NCc3cccc4ccccc34)n2CCOC)cc1	inconclusive: 11.2 µM [inhibitor, partial curve, poor fit]	
Cc1cc(C)n(-c2cc(N3CCOCC3)nc(-c3ccccc3)n2)n1	inconclusive: 7.3 µM [inhibitor, partial curve]	
Cc1ccc(NC(=O)COC(=O)CNC(=O)c2ccc(C)s2)cc1	inconclusive: 3.98 µM [activator, full curve]	
C/C(=N\NC(=O)Cc1c[nH]c2ccccc12)c1ccc2ccccc2c1	inconclusive: 35.5 µM [inhibitor, single point]	
CC(=O)c1ccc(NC(=O)COc2ccccc2-c2nc(-c3ccc(C)cc3)no2)cc1	inconclusive: 35.5 µM [inhibitor, single point]	
COC(=O)/C(=N/Nc1ccccc1C)Sc1nnc(C(O)c2ccccc2)n1-c1ccccc1 (configuration not stated)		inactive: 18.6% [at 46.1 µM]
COc1ccc(C(=O)Nc2ncccc2C)cc1S(=O)(=O)N1CCCc2ccccc21		inactive: 26.4%
Cc1csc(NC(=O)Cn2cnnn2)n1	inconclusive: 1.58 µM [inhibitor, partial curve, poor fit]	
Cc1ccc(C(=O)N/C(=C/c2cccnc2)C(=O)NCc2ccco2)cc1	inconclusive: 0.562 µM [inhibitor, full curve, poor fit]	

Structure (SMILES)	Potency	activity change, negative = inhibition
COc1ccc(C)cc1S(=O)(=O)N(CC(=O)O)c1ccc(F)cc1	inconclusive: 31.6 µM [activator, single point]	
Cc1ccc2c(c1)[C@@H](O)C[C@@H](C)N2N=O	inconclusive: 15.8 µM [activator, partial curve, poor fit]	
Cc1ccc2sc(-c3ccc(N)cc3)nc2c1	inconclusive: 14.1 µM [inhibitor, single point]	
O=C(Nc1ccc2nc(SCC(=O)N3CCc4ccccc43)sc2c1)c1ccccc1		inactive: -9.18% [at 46.1 µM]
Cc1ccc(NC(=O)CN2C(=O)c3ccccc3S2(=O)=O)cc1C	inconclusive: 4.47 µM [inhibitor, full curve, poor fit]	
Cc1ccccc1C(=O)OC1CCN(C)CC1	inconclusive: 7.94 µM [activator, partial curve, poor fit]	
O=C(NC(=S)Nc1ccc(CN2CCOCC2)cc1)c1ccco1	inconclusive: 2.82 µM [activator, full curve, poor fit]	
CCc1ccc(-n2c(=O)c3sc4ccccc4c3n(CC(=O)N(CC)Cc3ccccc3)c2=O)cc1	inconclusive: 4.47 µM [inhibitor, single point]	
CCCNC(=O)c1oc2ccc3c(c2c1C)C(=O)CC(C)(C)O3	inconclusive: 18.3 µM [inhibitor, single point]	
Cc1ccc(C)c(S(=O)(=O)NCCOc2nc(NC(C)C)nc(NC(C)C)n2)c1	inconclusive: 16.4 µM [inhibitor, partial curve, poor fit]	
FC(F)(F)c1ccc(-c2nc(-c3ccccc3)oc2Nc2ccc3ccccc3c2)cc1	inconclusive: 0.841 µM [activator, partial curve, poor fit]	
COc1ccc(C(=O)NCc2ccc(N3CCN(C(=O)OC(C)(C)C)CC3)cc2)cc1	inconclusive: 35.5 µM [inhibitor, single point]	
Cc1nn(-c2ccc(F)cc2)c(Cl)c1/C=N/NC(=O)c1cccc(S(=O)(=O)N2CCCC2)c1	inconclusive: 5.01 µM [inhibitor, single point]	
Cc1ccc(NC(=O)CSc2ncc(-c3ccccc3)[nH]2)cc1	inconclusive: 8.91 µM [activator, partial curve, poor fit]	
O=C(Nc1nccs1)c1sc2ccccc2c1Cl	active: 7.08 µM	
COc1cccc(NC(=O)CSc2nnc(-c3cccc(OC)c3)o2)c1	inconclusive: 2.82 µM [activator, partial curve, poor fit]	
S=C(NCc1ccco1)Nc1cc(Cl)c(Cl)cc1Cl		inactive: -18.2%
CCN1C(=O)c2cccc3c(S(=O)(=O)Nc4ccccc4OC)ccc1c23	inconclusive: 20 µM [inhibitor, single point]	
COC(=O)c1ccccc1NC(=O)c1ccc2c(c1)C(=O)N(Cc1ccco1)C2=O	inactive	
COc1cc2c(cc1NC(=O)Nc1ccccc1)oc1ccccc12		inactive: -4.02%
S=C(NCCc1ccccn1)NC1CCCCC1		inactive: -3.25%
